Here are results for 64 molecules from PubChem BioAssay AID2685 (National Center for Advancing Translational Sciences (NCATS), 2010).

This test is described as follows: qHTS Assay for Lipid Storage Modulators in Drosophila S3 Cells.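 On cell number change: cells counted by Cell Tracker Red CMTPX staining in the red channel.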 The settings on record: BODIPY lipid droplet fluorescence, 18-24 h; for cell number change: measured here: cell count max response, cells fed with added oleic acid. An outline of the steps: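 Drosophila S3 cells loaded with oleic acid (400 uM, as added) and compounds at several concentrations; lipid droplets imaged by 488-nm laser-scanning cytometry, 500–530 nm intensity and object ratio to cell channel. Percent activity normalized to 20 uM Triacsin C.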
Background: Quantitative high-throughput screening tests each substance at several concentrations.

The mark [1] stands for this setting: measured here: lipid fluorescence (Fed channel) AC50, cells fed with added oleic acid.
The mark [2] stands for this setting: measured here: cell number channel AC50, cells fed with added oleic acid.

Each structure is given as a SMILES string. The list shows a part of the results. The main result of the screen is listed elsewhere. These columns were measured beside it and carry no call. The list favours compounds with an active or inconclusive main result. Words in brackets tell the shape of the fitted curve; partial curves, single points and poor fits give uncertain potencies.

In general, AC50 refers to the midpoint of the concentration-response curve, whichever way the signal moves. Consider `N#CCCCCn1c(-c2cncs2)nc2ccccc21`, for which the cell number change was -1.94%. The half-maximal activity concentration (AC50) under setting [1] is 6.51 µM [falling, single point].

On to `Cc1sc2nc(CN3CCCCC3)nc(N3CCN(C(=O)c4ccco4)CC3)c2c1C`, for which the cell number change is 38.4%. The AC50 under setting [2] was 0.366 µM [rising, full curve, poor fit]. In addition, under setting [1], the half-maximal activity concentration (AC50) is 29.1 µM [rising, single point].

As to `CCOC(=O)C1C(=O)C=C(c2ccc(C)cc2)CC1c1ccccc1` (configuration not stated), under setting [1], the concentration at half-maximal activity (AC50) was 25.9 µM [rising, single point]. In the case of `COc1ccc(/C=C(\C#N)c2c[nH]c3ccccc23)cc1`, the cell number change was -43.4%. The half-maximal activity concentration (AC50) under setting [2] was 2.91 µM [falling, partial curve]. Turning to `COc1ccccc1N(C(=O)CNC(=O)c1ccco1)C(C(=O)NC1CCCCC1)c1ccncc1` (configuration not stated), the cell number change was -22.9%. Consider `CCOCc1c(C(=O)OCC(=O)Nc2ccc(C)c(S(=O)(=O)N(C)C)c2)oc2ccccc12`, for which the cell number change stood at 17%. Besides, the concentration at half-maximal activity (AC50) under setting [1] is 1.03 µM [rising, partial curve]. Consider `COc1ccccc1/C=C(/C(=O)OCC(=O)NCc1ccccc1)c1ccccc1`, for which the cell number change is -48.2%. In the case of `CCCOC(=O)c1ccc(NC(=O)c2cnccn2)cc1`, the cell number change stood at 16.1%. Turning to `Cc1ccc(NC(=O)CSc2nc3ncc(Br)cc3[nH]2)cc1C`, the cell number change is -8.87%. In addition, the AC50 under setting [1] is 0.206 µM [rising, partial curve, poor fit]. In the case of `CCOC(=O)c1cn(-c2ccc(F)c(F)c2F)c2c(F)c(F)c(F)cc2c1=O`, the cell number change is 12.2%.

In the case of `COc1ccc(/C=C2\SC(=O)N(CCC(=O)Nc3ccccc3)C2=O)cc1OC`, the cell number change is -59.1%. For the same molecule, the AC50 under setting [2] was 29.1 µM [falling, single point]. Under setting [1], the half-maximal activity concentration (AC50) is 32.6 µM [falling, partial curve, poor fit].

`O=C(CCC(=O)Nc1cc(C(F)(F)F)ccc1Cl)N/N=C\c1cc([N+](=O)[O-])ccc1O`: the cell number change was -7.24%. The concentration at half-maximal activity (AC50) under setting [1] is 3.66 µM [falling, single point]. As for `CCN(C(=O)CCNC(=O)Cn1cnc2ccccc2c1=O)c1cccc(Cl)c1`, the cell number change was -6.35%.

Turning to `COc1ccccc1C(C(=O)NC1CCCCC1)N(C(=O)c1csnn1)C1CC1` (configuration not stated), the cell number change is -1.9%. Take `O=C(O)COc1ccccc1/C=N/NC(=O)c1cc2ccccc2cc1O`: the cell number change turned out to be 24.9%. Also, the AC50 under setting [1] was 0.00461 µM [rising, full curve, poor fit]. On to `Cc1ccc(/C=N/NC(=O)CCn2nc(C)cc2C)c(C)c1`, for which the cell number change was 0.865%.

Consider `O=C(O)c1ccccc1-c1ccccc1C(=O)Nc1ccc2c(c1)CCC2`, for which the cell number change was -9.49%. Under setting [1], the concentration at half-maximal activity (AC50) is 29.1 µM [rising, single point]. Regarding `CCc1ccccc1NC(=O)CN1CCN(C(=O)c2ccc(OCc3cn4ccccc4n3)cc2)CC1`, the cell number change came out at 15%. With `CCCn1cc(S(=O)(=O)c2ccc(C)cc2)c(=O)c2cc(OC)c(OC)cc21`, the cell number change is 8.25%.

Regarding `COc1ccc(-n2ccnc2)cc1`, the cell number change was determined as 127%.

For the molecule `CC(C)C(=O)N1CCN(CCN=CC2=C(O)CC(c3ccco3)CC2=O)CC1` (configuration not stated), the AC50 runs as follows: under setting [2], 0.517 µM [falling, full curve]; under setting [1], 0.164 µM [falling, full curve, poor fit]. `NS(=O)(=O)c1ccc(-c2ccc(C=C3C(=O)c4ccccc4C3=O)o2)cc1`: the cell number change turned out to be 18.9%.

Consider `O=C(NC1C2CCCC1CN(C1CC1)C2)c1ccc(Cl)cc1` (configuration not stated), for which the AC50 under setting [1] was 29.1 µM [falling, single point]. With `O=c1[nH]cnc2nc3n(c12)CCCCC3`, the cell number change was -6.9%. In addition, under setting [1], the concentration at half-maximal activity (AC50) is 4.11 µM [falling, partial curve].

Regarding `O=C(COC(=O)c1c(F)cccc1Cl)NC(=O)Nc1ccc2c(c1)OCCO2`, the cell number change came out at 17%. Also, the AC50 under setting [1] is 23.1 µM [rising, partial curve].

For the molecule `CCN(CC)C(=O)c1ccc(-c2nnc(Nc3cccc(O)c3)c3ccccc23)cc1`, the cell number change is -32.8%. Besides, the AC50 under setting [2] is 13 µM [falling, partial curve, poor fit]. Moreover, the AC50 under setting [1] is 18.4 µM [falling, single point]. Take `CC(=O)Nc1nc2ccc(S(=O)(=O)N3CCCCC3)cc2s1`: the cell number change was 2.96%. In addition, the AC50 under setting [1] was 0.00411 µM [rising, full curve, poor fit].

Take `Cc1cc(C)cc(NC(=O)CN(C)CC(=O)N(CC(C)C)c2c(N)n(CC(C)C)c(=O)[nH]c2=O)c1`: the cell number change was 13.5%. The AC50 under setting [1] was 29.1 µM [rising, single point]. For the molecule `CC[C@@H](C)[C@H](NC(=O)OCc1ccccc1)c1nnc([C@@H](NC(=O)OCc2ccccc2)[C@@H](C)CC)o1`, the cell number change is 1.47%. The concentration at half-maximal activity (AC50) under setting [2] is 5.17 µM [rising, partial curve, poor fit]. For the same molecule, the concentration at half-maximal activity (AC50) under setting [1] is 4.61 µM [rising, partial curve, poor fit]. On to `CC(C)CC(=O)NC(=S)Nc1ccc(S(=O)(=O)N2CCN(C)CC2)cc1`, for which the AC50 under setting [2] was 0.58 µM [falling, single point]. Regarding `Cc1cc(C)c(S(=O)(=O)c2ccccc2C)c(SCC(C)C)n1`, the cell number change was -29.1%. Also, under setting [2], the AC50 is 3.66 µM [rising, single point]. Also, the concentration at half-maximal activity (AC50) under setting [1] was 29.1 µM [falling, single point]. As to `O=C(Nc1cccc2cccnc12)c1cccc2ccccc12`, the cell number change is 111%. The half-maximal activity concentration (AC50) under setting [2] was 18.4 µM [rising, partial curve]. Also, under setting [1], the half-maximal activity concentration (AC50) was 0.00517 µM [rising, full curve, poor fit]. Turning to `COc1ccccc1S(=O)(=O)CC(O)COc1ccc(C#N)cc1` (configuration not stated), the cell number change was 44.9%. Also, the AC50 under setting [2] was 3.26 µM [falling, single point]. The AC50 under setting [1] was 4.61 µM [falling, single point]. On to `CN(C)CCCn1c(N)c(S(=O)(=O)c2ccccc2)c2nc3ccccc3nc21`, for which the cell number change was -9.94%. Moreover, under setting [1], the AC50 is 6.51 µM [falling, single point].

Take `CC(C)NC(=S)N/N=C1\CCCCC1C1CCCCC1` (configuration not stated): the cell number change worked out at 19.2%. The AC50 under setting [2] was 0.58 µM [rising, full curve, poor fit]. For the same molecule, the AC50 under setting [1] was 3.26 µM [rising, partial curve].

With `O=C(CSc1ccc2c(c1)OCCO2)Nc1ncccc1O`, the cell number change was determined as 6.56%. For `COc1ccc(/C=C/C(=O)N2CCCC2)cc1OC`, the cell number change came to 11.1%. As to `CC(C)(C)c1ccc(OCCC(=O)NCC(c2cccs2)N2CCOCC2)cc1` (configuration not stated), the cell number change was -33.5%. Besides, under setting [2], the concentration at half-maximal activity (AC50) was 16.4 µM [falling, single point]. Also, under setting [1], the concentration at half-maximal activity (AC50) is 18.4 µM [falling, single point].

With `COCCCNC(=O)c1c(F)c(F)c(F)c(F)c1F`, the cell number change is -2.16%.

For `O=C(NNc1cccc(Cl)c1)c1cccnc1Cl`, the cell number change came out at 35%. Further, the half-maximal activity concentration (AC50) under setting [2] is 11.6 µM [rising, partial curve, poor fit].

Regarding `CC(=O)Nc1ccc(NC2=Nc3ccccc3N3C2=Nc2c(c(C)nn2-c2ccccc2)C3c2ccccc2)cc1` (configuration not stated), the cell number change was -8.37%. For `N#Cc1c(C(F)(F)F)cc(=O)[nH]c1SCC(=O)O`, the cell number change stood at 67%. For the molecule `c1ccc(Cn2ncc3c(N4CCCCC4)ncnc32)cc1`, the cell number change is -3.82%. The half-maximal activity concentration (AC50) under setting [1] was 1.46 µM [falling, partial curve]. With `C=CCNC(=O)c1ccccc1NC(=O)c1ccc(Cl)c(S(=O)(=O)Nc2cc(C)ccc2C)c1`, the cell number change is -9.76%. Further, the AC50 under setting [1] is 0.206 µM [falling, full curve, poor fit].

With `CCc1ccc(C(=O)COC(=O)c2cc([N+](=O)[O-])ccc2NCCO)cc1`, the cell number change was -31.8%. Under setting [2], the half-maximal activity concentration (AC50) is 29.1 µM [falling, single point]. Turning to `CCOC(=O)C1CCCN(c2c(NCCCN3CCCC(C)C3)c(=O)c2=O)C1` (configuration not stated), the cell number change is -10.9%.

`Cc1ccc(-c2nn3c(C)nnc3c3ccccc23)cc1S(=O)(=O)N(C)CCO`: the cell number change is -0.452%. Moreover, the AC50 under setting [1] is 0.517 µM [rising, full curve, poor fit]. Take `O=C(OCc1ccccc1Cl)C1CC(=O)N(Cc2ccco2)C1` (configuration not stated): the cell number change was -9.8%. Besides, the AC50 under setting [1] was 0.651 µM [falling, single point]. For the molecule `Cc1ccc(SCC(=O)NC(=O)c2ccc(S(=O)(=O)N(C)C)cc2)cc1C`, the cell number change was -22.3%. Further, the AC50 under setting [1] is 0.206 µM [falling, full curve, poor fit]. Regarding `Cc1ccc(CSCCNC(=O)c2ccc(N(C)S(=O)(=O)c3ccccc3)cc2)cc1`, the concentration at half-maximal activity (AC50) under setting [2] was 2.06 µM [rising, partial curve, poor fit].

In the case of `O=C(c1cc2ccccc2o1)N1CCN(C/C=C/c2ccccc2)CC1`, the cell number change was -10.9%. For the same molecule, the AC50 under setting [1] is 6.51 µM [rising, single point]. In the case of `CN(C)S(=O)(=O)c1ccc(C(=O)OCn2nnc3ccccc3c2=O)cc1`, the cell number change was -4.84%. For the same molecule, the AC50 under setting [1] was 16.4 µM [falling, partial curve]. Regarding `Cc1ccc(N(CC(=O)NCc2ccccc2)S(=O)(=O)c2c(C)noc2C)cc1`, the cell number change was found to be 23.8%. Under setting [1], the AC50 is 6.51 µM [falling, single point].

On to `O=C(CSc1nnnn1C1CCCC1)Nc1ccccc1N1CCOCC1`, for which the cell number change is 15.3%. Besides, under setting [2], the half-maximal activity concentration (AC50) is 6.51 µM [falling, single point]. In addition, the half-maximal activity concentration (AC50) under setting [1] is 6.51 µM [falling, single point]. Regarding `Cc1ccc(C)n1-c1ccc(C(=O)NC2CCN(Cc3ccccc3)CC2)cc1`, the cell number change was -11%. In addition, the concentration at half-maximal activity (AC50) under setting [1] was 1.03 µM [falling, full curve, poor fit].

For `COc1ccc2ccc(OCC(=O)Nc3cc(C)on3)cc2c1`, the cell number change came out at 13%. Further, the AC50 under setting [1] is 1.16 µM [rising, full curve, poor fit].

Take `Cc1cccnc1NC(=O)c1ccc(OCc2c(C)noc2C)cc1`: the cell number change turned out to be 22%. Same read-out and setting: the same measure for `CC(C)n1nc(C(=O)Nc2nc3ccc(S(C)(=O)=O)cc3s2)c2ccccc2c1=O`: 9.57%; for `CN(c1ccc(C(=O)NCc2cccs2)cc1)S(=O)(=O)c1ccccc1`: 6.92%; for `CCN(CC(=O)Nc1ccc(OC)cc1)C(=O)Cc1cccs1`: -0.81%. Regarding `O=CN1CCN(C(=O)c2ccccc2Cl)CC1`, the AC50 under setting [1] was 20.6 µM [falling, partial curve]. Consider `O=c1oc2ccccc2n1CCc1ccccc1`, for which the cell number change was 47.9%. For the same molecule, the concentration at half-maximal activity (AC50) under setting [2] is 11.6 µM [rising, partial curve, poor fit]. In the case of `CCCC[C@H]1COCCS(=O)(=O)N1Cc1ccccc1F`, the cell number change was -0.299%. As for `COCCCN(C(=O)c1ccco1)c1nc(-c2cc(OC)ccc2OC)cs1`, the cell number change is -31%. Further, the AC50 under setting [2] was 1.64 µM [falling, partial curve, poor fit]. Under setting [1], the AC50 was 6.51 µM [falling, single point].
